Here are results for 30 sequences from PubChem BioAssay AID1508600 (Functional Genomics Laboratory (NCATS/FGL), 2020).

In all, about 53,000 sequences went through this assay and about 3,700 (7%) were called active.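 The calls were made as follows: active = gene knockdowns whose robust z-score for IL-1 alpha signal is at least 2 or at most -2, so actives lie on both sides; inactive = the rest.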 The list shows a part of the results.

The nature of the assay: Components of the Cytosolic LPS Sensing Pathway: Gene Identification via Genome-wide siRNA Screen.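 Also: robust z of the log signal after scaling to non-targeting control siRNA wells of the plate.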 Particulars: RAW264.7 macrophages, IL-1a HTRF, actives lie on both sides, screened at 100 nM (by protocol), cells primed 5 h with Pam3CSK4 first. The gist of the method: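 IL-1a HTRF of supernatants after 24 hour LipidA transfection of Pam3CSK4-primed (5 hours) RAW264.7 cells, 48h post-siRNA transfection (100 nM). Scores: percent of plate negative-control median, then log-based robust z-score.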
(Time-resolved FRET reads energy transfer from a long-lived donor to a nearby acceptor.)
GGCAAGAAACACAAAAAGATT against Zmat4: the z-score was inactive: -1.08.

On to GCGUGAAUACCUAAAUGUGTT against Rec8, for which the z-score is inactive: 0.517.

Consider GGUUGAUUUAGAGAGGGCCTT against Gprc5c, for which the z-score was inactive: -0.417. To GCACCAUCAUAUGAUCACGTT against Cd83 belongs inactive: 0.573. CCCAUUUCACUUCAGUUUGTT against Osbp2: the z-score is inactive: -0.253.

On to GGUGAAGAGAUUGACGUGGTT against Mycl, for which the z-score is inactive: -1.34. To CGUCGUGGUUGGUAUGUAATT against Sacs belongs inactive: -1.18; to GGUGAAAUCGACAAUCAAGTT against Rpl10a, inactive: 0.0182; to GGGCAACAAGACUUUGAAATT against Tmem63a, inactive: 0.45. For GCUGGCCUAAGAGUCCCUUTT against Klra8 the value was inactive: -0.891; for GCAAAGCUUGAUAACAAUATT against Idh1, inactive: 0.509; for GCCCAGAUUGUGCUAACAUTT against Prkacb, inactive: -0.466. Turning to GGAUCACUACCAUGAAAACTT against Bace1, the z-score is inactive: -1.35. For GCAGAUUUAUUCCUCACGATT against Itfg1 the value was inactive: 0.562; for GGAAUACAAACUGCUGUACTT against Urgcp, inactive: 0.138; for GGAAAUAGAGGAAAGAGAATT against Rbm17, inactive: -0.235.

Consider UUUGUUGAUCUGUUCACCATT against Mbtps2, for which the z-score is inactive: 0.208.

As for CCUUAGAACUGAGAUAAGUTT against BC030500, the z-score was inactive: 0.996. For the sequence CCUUUAAGCUAAAUGAAGGTT against Scube2, the z-score was inactive: -0.581.

Turning to GGAAAUACUGGAUCAUCAATT against Cts3, the z-score is inactive: 0.956. To GCUUUGACUGGAAUGACGGTT against Pex7 belongs active: -2.2. For CGAAAGCUUCCGAAUCUUCTT against Rsph6a, the z-score is inactive: -0.0807. For the sequence GGAUAACAUAACUUUGGAUTT against Fam204a, the z-score is inactive: -0.923. GGAGCUGUUUAUGUACUUUTT against Neil3: the z-score is inactive: -1.55. For the sequence GGCCAAAUCAUGGAUGCAGTT against Comt, the z-score was inactive: -0.324. To GGACCGACUUCGUCUCACUTT against Ccdc87 belongs inactive: 0.603. As to GGGAAUUACUGUUUCUGUCTT against Uhrf1bp1l, the z-score was inactive: 0.537.

As to GCAGAUAACAACAGUUGAATT against B3gat2, the z-score was inactive: 1.17. As to GCGGAUCAAUGUCUUGCCATT against Asl, the z-score was inactive: -0.81. Take CCGUUGCCUGAUAAGUUCUTT against Klf3: the z-score is inactive: 0.576.
